Reference: the supplement of paper PMC9135407
Values joined by “and” are separate entries in the source; they are usually repeats but may differ in a detail not shown here. Identical values can stand only once. Counter-ions that a name gives are not always drawn. ± gives the standard deviation of the averaged measurements. Some of the results follow. Plates or batches differ in their baseline, so values are only roughly comparable.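 Assay uses culture-activated primary human stellate myofibroblasts; lipid droplet recovery indicates inactivation. Measured: proportion of Hoechst-counted cells over a plate-specific Bodipy cutoff, duplicate wells, DMSO and nortriptyline as per-plate negative and positive controls. A hit scores, control-normalized, above the plate's top-tenth-percentile nortriptyline wells or ranks among its three best wells. Final well concentrations not reported.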

Tested on: primary human hepatic stellate cells (donor 1)
Test: percent Bodipy-positive cells; higher = more lipid droplet accumulation
Conditions: 48 h
[1] = library stock concentration: 80 uM
[2] = library stock concentration: 400 uM
[3] = library stock concentration: 2 mM
[4] = library stock concentration: 3.33 mM
[5] = library stock concentration: 10 mM
[6] = library stock concentration: 1 mM

Compound: C=CCn1c(=O)c2cnc(Nc3ccc(N4CCN(C)CC4)cc3)nc2n1-c1cccc(C(C)(C)O)n1
- percent Bodipy-positive cells [1]: 18.6 ± 11%
- percent Bodipy-positive cells [2]: 24.8 ± 6.9%
- percent Bodipy-positive cells [3]: 28.1 ± 4.6%
- percent Bodipy-positive cells [4]: 18.9 ± 6.7%
- percent Bodipy-positive cells [5]: 26.1% and 42.9%

Compound: CC(C)(C)NCC(O)c1ccc(O)c(CO)c1 (racemic) [Albuterol (+/-)]
- percent Bodipy-positive cells [5]: 32.8 ± 6.7%

Compound: Clc1ccc(C(Cn2ccnc2)OCc2csc3c(Cl)cccc23)c(Cl)c1 (centres undefined) [Sertaconazole nitrate]
- percent Bodipy-positive cells: 13.5 ± 2.7%
- percent Bodipy-positive cells [4]: 10.9 ± 3%
- percent Bodipy-positive cells [5]: 90.2 ± 2.4%

Compound: CCCCCCCCCCCCCCCC(=O)NC(CO)CO [Palmitoyl Serinol]
- percent Bodipy-positive cells [6]: 12.1 ± 1.7%

Compound: Cl[H].CN1CC\C(=C(/c2c(cccc2)C=C3)\c(cccc4)c34)\CC1 [Cyproheptadine hydrochloride]
- percent Bodipy-positive cells [5]: 71.3 ± 7.3%

Compound: CCCCC/C=C\C/C=C\C/C=C\C/C=C\CCCCN1C(=O)C=CC1=O [N-Arachidonyl Maleimide]
- percent Bodipy-positive cells [6]: 8.71 ± 3.6%

Compound: CN(CCOc1ccc(C[C@H](Nc2ccccc2C(=O)c2ccccc2)C(=O)O)cc1)c1ccccn1
- percent Bodipy-positive cells [5]: 3.72 ± 1.1%

Compound: CC(NC(=O)Cc1cc(F)cc(F)c1)C(=O)NC1C(=O)N(C)c2ccccc2-c2ccccc21 (centres undefined)
- percent Bodipy-positive cells [4]: 9.54 ± 5.4%
- percent Bodipy-positive cells [5]: 64.5 ± 14%

Compound: C[C@H]1[C@H](OC(=O)CCC(=O)O)O[C@@H]2O[C@@]3(C)CC[C@H]4[C@H](C)CC[C@@H]1[C@@]24OO3
- percent Bodipy-positive cells [5]: 6.29 ± 3.3%

Compound: C[C@H]1[C@H](OC(=O)CCC(=O)O)O[C@@H]2O[C@@]3(C)CC[C@H]4[C@H](C)CC[C@@H]1[C@@]24OO3 [Artesunate]
- percent Bodipy-positive cells [4]: 15.5 ± 7.5%
- percent Bodipy-positive cells (library stock concentration: 5.2 mM): 5.69 ± 2.5%
- percent Bodipy-positive cells [5]: 15.238 ± 0.0057%

Compound: CC(N)C(=O)OC(C)(C)Cc1ccc(Cl)cc1 (centres undefined) [Alaproclate]
- percent Bodipy-positive cells [5]: 57.4 ± 14%

Compound: CC(N)C(=O)OC(C)(C)Cc1ccc(Cl)cc1 (centres undefined) [Alaproclate hydrochloride]
- percent Bodipy-positive cells [5]: 85.5 ± 4.1%

Compound: O=C(O)CCNC(=O)c1ccc(/N=N/c2ccc(O)c(C(=O)O)c2)cc1 [Balsalazide Sodium]
- percent Bodipy-positive cells: 4.02 ± 1.5%

Compound: C=CC(=O)Nc1cccc(Nc2nc(NC3CCC(N(C)C)CC3)nc3c2ncn3C(C)C)c1 (centres undefined)
- percent Bodipy-positive cells [1]: 33.2 ± 6.4%
- percent Bodipy-positive cells [2]: 50.9 ± 8.4%
- percent Bodipy-positive cells [3]: 54 ± 6.3%
- percent Bodipy-positive cells [5]: 98.4 ± 1.2%

Compound: C[n+]1ccccc1/C=N/O
- percent Bodipy-positive cells [5]: 35.6 ± 1.3%

Compound: C[n+]1ccccc1/C=N/O [Pralidoxime chloride]
- percent Bodipy-positive cells: 13.9 ± 5.1%
- percent Bodipy-positive cells (library stock concentration: 11.6 mM): 15.4 ± 4.4%

Compound: CCCCC[C@@H](O)/C=C/[C@H]1C(=O)C[C@H](O)[C@@H]1C/C=C\CCCC(=O)O [15(R)-Prostaglandin D2]
- percent Bodipy-positive cells [6]: 13.3 ± 1.1%

Compound: CCOc1cc(N)c(Cl)cc1C(=O)NCC1CN(Cc2ccc(F)cc2)CCO1 (centres undefined)
- percent Bodipy-positive cells [5]: 30.6 ± 0.79%

Compound: CCOc1cc(N)c(Cl)cc1C(=O)NCC1CN(Cc2ccc(F)cc2)CCO1 (centres undefined) [Mosapride Citrate]
- percent Bodipy-positive cells [4]: 11.8 ± 0.52%
- percent Bodipy-positive cells [5]: 31.2 ± 10%

Compound: COc1cc(Nc2ncc(F)c(Nc3ccc4c(n3)NC(=O)C(C)(C)O4)n2)cc(OC)c1OC.O=S(=O)(O)c1ccccc1
- percent Bodipy-positive cells [5]: 91.9 ± 3.7%

Compound: Cc1cccc(Nc2ccccc2C(=O)O)c1C [Mefenamic Acid]
- percent Bodipy-positive cells [4]: 9.27 ± 2.7%
- percent Bodipy-positive cells [5]: 36.5 ± 17%

Compound: Cc1cccc(Nc2ccccc2C(=O)O)c1C
- percent Bodipy-positive cells [5]: 31.8 ± 3.8%

Compound: Cc1cccc(Nc2ccccc2C(=O)O)c1C [Mefenamic acid]
- percent Bodipy-positive cells: 30 ± 18%
- percent Bodipy-positive cells (library stock concentration: 8.3 mM): 9.58% and 13.1%
- percent Bodipy-positive cells [5]: 41.2 ± 1.9%

Compound: CCC(C)n1ncn(-c2ccc(N3CCN(c4ccc(OCC5COC(Cn6cncn6)(c6ccc(Cl)cc6Cl)O5)cc4)CC3)cc2)c1=O (centres undefined) [Itraconazole]
- percent Bodipy-positive cells (library stock concentration: 2.8 mM): 7.07 ± 3%
- percent Bodipy-positive cells [4]: 52.3 ± 4.2%
- percent Bodipy-positive cells [5]: 53.36 ± 0.5%

Compound: O=C(O)[C@]1(O)C[C@@H](O)[C@@H](O)[C@H](O)C1 [Quinic acid]
- percent Bodipy-positive cells: 8.79 ± 0.69%

Compound: CNCCCN1c2ccccc2CCc2ccccc21 [Desipramine hydrochloride]
- percent Bodipy-positive cells (library stock concentration: 6.6 mM): 30.9 ± 3.9%
- percent Bodipy-positive cells [5]: 64.1 ± 7.5%

Compound: CC(C)(C(=O)NCC(F)(F)C(F)(F)F)C(=O)N[C@@H]1C(=O)Nc2ccccc2-c2ccccc21
- percent Bodipy-positive cells [4]: 6.77 ± 1.9%
- percent Bodipy-positive cells [5]: 16.7 ± 0.8%

Compound: CC[n+]1c(-c2ccccc2)c2cc(N)ccc2c2ccc(N)cc21 [Homidium bromide]
- percent Bodipy-positive cells [5]: 92.4 ± 3.1%

Compound: O=C1OC(CN2CCOCC2)CN1/N=C/c1ccc([N+](=O)[O-])o1 (centres undefined)
- percent Bodipy-positive cells [5]: 33.56 ± 0.036%

Compound: O=C1OC(CN2CCOCC2)CN1/N=C/c1ccc([N+](=O)[O-])o1 (centres undefined) [Furaltadone HCl]
- percent Bodipy-positive cells [4]: 8.14 ± 6.1%
- percent Bodipy-positive cells [5]: 26.4 ± 7.5%

Compound: O=C1OC(CN2CCOCC2)CN1/N=C/c1ccc([N+](=O)[O-])o1 (centres undefined) [Furaltadone hydrochloride]
- percent Bodipy-positive cells: 6.78 ± 1.1%

Compound: Cc1ccsc1C(=CCCN1CCC[C@@H](C(=O)O)C1)c1sccc1C
- percent Bodipy-positive cells [5]: 2.96 ± 0.12%

Compound: O=C1c2c(O)cc(O)cc2O[C@H](c2cc(O)c(O)c(O)c2)[C@H]1O [Dihydromyricetin]
- percent Bodipy-positive cells [4]: 9.05 ± 2.6%
- percent Bodipy-positive cells [5]: 11.1 ± 1.8%

Compound: Cc1ccc(-c2c(-c3nn(C)c4ncnc(N5CC[C@H](N6CCCCC6)C5)c34)cnn2C)cc1
- percent Bodipy-positive cells [4]: 8.38 ± 1.5%
- percent Bodipy-positive cells [5]: 25.1 ± 0.82%

Compound: C[n+]1ccccc1C=NO [Pralidoxime mesylate]
- percent Bodipy-positive cells [5]: 36.3 ± 1.8%
